Assay results: patent US20130338130A1 (priority 2009, published 2013)
Several values for one entry are separate records, joined by “and”; a condition that tells them apart may be missing. Equal values may be shown once. Read-outs that look alike come from different tables or passages of the source. This continues a long series; more values of the same kind are listed elsewhere.

System: ATCC strain 43300 Staphylococcus aureus
Details: for survival (cfu/ml): triplicate platings
[1] = 30 μg/ml oxacillin + MSM (% in label), 96 hours, listed as 12% MSM
[2] = 30 μg/ml oxacillin + MSM (% in label), 96 hours, listed as 13% MSM
[3] = 30 μg/ml oxacillin + MSM (% in label), 96 hours, listed as 14% MSM
[4] = 30 μg/ml oxacillin + MSM (% in label), 96 hours, listed as 15% MSM
[5] = 30 μg/ml oxacillin + MSM (% in label), 120 hours, listed as 5% MSM
[6] = 30 μg/ml oxacillin + MSM (% in label), 120 hours, listed as 6% MSM
[7] = 30 μg/ml oxacillin + MSM (% in label), 120 hours, listed as 7% MSM
[8] = 30 μg/ml oxacillin + MSM (% in label), 120 hours, listed as 8% MSM
[9] = 30 μg/ml oxacillin + MSM (% in label), 120 hours, listed as 9% MSM
[10] = 30 μg/ml oxacillin + MSM (% in label), 120 hours, listed as 10% MSM
[11] = 30 μg/ml oxacillin + MSM (% in label), 120 hours, listed as 11% MSM
[12] = 30 μg/ml oxacillin + MSM (% in label), 120 hours, listed as 12% MSM
[13] = 30 μg/ml oxacillin + MSM (% in label), 120 hours, listed as 13% MSM
[14] = 30 μg/ml oxacillin + MSM (% in label), 120 hours, listed as 14% MSM
[15] = 30 μg/ml oxacillin + MSM (% in label), 120 hours, listed as 15% MSM
[16] = 30 μg/ml oxacillin + MSM (% in label), 120 hours, listed as 16% MSM

`CS(C)(=O)=O` [MSM, Methylsulfonylmethane] was tested, and the “survival, Average Log” value [1] was 3.7 Log, the “survival, Average Log” value [2] was 2.5 Log and the “survival, Average Log” value [3] was 1.7 Log. The “survival, Average Log” value [4] was 1.9 Log, the “survival, Average Log” value (30 μg/ml oxacillin + MSM (% in label), 96 hours, listed as 16% MSM) was 1.3 Log and the “survival (cfu/ml)” value (30 μg/ml oxacillin + MSM (% in label), 96 hours, listed as 5% MSM) was >3.3 × 10^5 cfu/ml. For the same molecule, the “survival (cfu/ml)” value (30 μg/ml oxacillin + MSM (% in label), 96 hours, listed as 6% MSM) was >3.3 × 10^5 cfu/ml, the “survival (cfu/ml)” value (30 μg/ml oxacillin + MSM (% in label), 96 hours, listed as 7% MSM) was >3.3 × 10^5 cfu/ml and the “survival (cfu/ml)” value (30 μg/ml oxacillin + MSM (% in label), 96 hours, listed as 8% MSM) was >3.3 × 10^5 cfu/ml. The “survival (cfu/ml)” value (30 μg/ml oxacillin + MSM (% in label), 96 hours, listed as 9% MSM) was 1.0 × 10^4 cfu/ml and 1.02 × 10^4 cfu/ml and 1.01 × 10^4 cfu/ml, the “survival (cfu/ml)” value (30 μg/ml oxacillin + MSM (% in label), 96 hours, listed as 10% MSM) was >3.3 × 10^5 cfu/ml and the “survival (cfu/ml)” value (30 μg/ml oxacillin + MSM (% in label), 96 hours, listed as 11% MSM) was >3.3 × 10^5 cfu/ml. The “survival (cfu/ml)” value [1] was 6.9 × 10^3 cfu/ml and 3.9 × 10^3 cfu/ml, the “survival (cfu/ml)” value [2] was 3.3 × 10^2 cfu/ml and 3.1 × 10^2 cfu/ml and 3.2 × 10^2 cfu/ml and the “survival (cfu/ml)” value [3] was 5.0 × 10^1 cfu/ml and 6.0 × 10^1 cfu/ml. The “survival (cfu/ml)” value [4] was 8.0 × 10^1 cfu/ml, the “survival, Average Log” value [5] was 5.5 Log and the “survival, Average Log” value [6] was 5.5 Log. For the same molecule, the “survival, Average Log” value [7] was 5.5 Log, the “survival, Average Log” value [8] was 5.5 Log and the “survival, Average Log” value [9] was 5.5 Log. The “survival, Average Log” value [10] was 5.5 Log, the “survival, Average Log” value [11] was 5.5 Log and the “survival, Average Log” value [12] was 4.7 Log. For the same molecule, the “survival, Average Log” value [13] was 3.0 Log, the “survival, Average Log” value [14] was 1.3 Log and the “survival, Average Log” value [15] was 0 Log. The “survival, Average Log” value [16] was 1.3 Log, the “survival (cfu/ml)” value [5] was >3.3 × 10^5 cfu/ml and the “survival (cfu/ml)” value [6] was >3.3 × 10^5 cfu/ml. For the same molecule, the “survival (cfu/ml)” value [7] was >3.3 × 10^5 cfu/ml, the “survival (cfu/ml)” value [8] was >3.3 × 10^5 cfu/ml and the “survival (cfu/ml)” value [9] was >3.3 × 10^5 cfu/ml. The “survival (cfu/ml)” value [10] was >3.3 × 10^5 cfu/ml, the “survival (cfu/ml)” value [11] was >3.3 × 10^5 cfu/ml and the “survival (cfu/ml)” value [12] was 6.8 × 10^4 cfu/ml and 3.9 × 10^4 cfu/ml and 6.9 × 10^4 cfu/ml. For the same molecule, the “survival (cfu/ml)” value [13] was 1.02 × 10^3 cfu/ml and 1.01 × 10^3 cfu/ml, the “survival (cfu/ml)” value [14] was 3.0 × 10^1 cfu/ml and 2.0 × 10^1 cfu/ml and the “survival (cfu/ml)” value [15] was 0 cfu/ml. For the same molecule, the “survival (cfu/ml)” value [16] was 2.0 × 10^1 cfu/ml and 3.0 × 10^1 cfu/ml, the “survival (cfu/ml)” value (60 μg/ml oxacillin + MSM (% in label), 24 hours, listed as 5% MSM) was 3.5 × 10^2 cfu/ml and 3.3 × 10^2 cfu/ml and 3.6 × 10^2 cfu/ml and the “survival (cfu/ml)” value (60 μg/ml oxacillin + MSM (% in label), 24 hours, listed as 6% MSM) was 2.4 × 10^2 cfu/ml. For the same molecule, the “survival (cfu/ml)” value (60 μg/ml oxacillin + MSM (% in label), 24 hours, listed as 7% MSM) was 2.1 × 10^2 cfu/ml and 2.3 × 10^2 cfu/ml, the “survival (cfu/ml)” value (60 μg/ml oxacillin + MSM (% in label), 24 hours, listed as 8% MSM) was 4.6 × 10^2 cfu/ml and 5.0 × 10^2 cfu/ml and the “survival (cfu/ml)” value (60 μg/ml oxacillin + MSM (% in label), 24 hours, listed as 9% MSM) was 3.2 × 10^2 cfu/ml. For the same molecule, the “survival (cfu/ml)” value (60 μg/ml oxacillin + MSM (% in label), 24 hours, listed as 10% MSM) was 4.2 × 10^2 cfu/ml and 4.4 × 10^2 cfu/ml, the “survival (cfu/ml)” value (60 μg/ml oxacillin + MSM (% in label), 24 hours, listed as 11% MSM) was 6.7 × 10^2 cfu/ml and 6.9 × 10^2 cfu/ml and the “survival (cfu/ml)” value (60 μg/ml oxacillin + MSM (% in label), 24 hours, listed as 12% MSM) was 7.3 × 10^2 cfu/ml and 7.1 × 10^2 cfu/ml and 7.5 × 10^2 cfu/ml. For the same molecule, the “survival (cfu/ml)” value (60 μg/ml oxacillin + MSM (% in label), 24 hours, listed as 13% MSM) was 6.3 × 10^2 cfu/ml and 6.0 × 10^2 cfu/ml, the “survival (cfu/ml)” value (60 μg/ml oxacillin + MSM (% in label), 24 hours, listed as 14% MSM) was 1.8 × 10^2 cfu/ml and 1.7 × 10^2 cfu/ml and the “survival (cfu/ml)” value (60 μg/ml oxacillin + MSM (% in label), 24 hours, listed as 15% MSM) was 6.6 × 10^3 cfu/ml and 6.2 × 10^3 cfu/ml and 6.4 × 10^3 cfu/ml. The “survival (cfu/ml)” value (60 μg/ml oxacillin + MSM (% in label), 24 hours, listed as 16% MSM) was 6.9 × 10^3 cfu/ml, the “survival (cfu/ml)” value (60 μg/ml oxacillin + MSM (% in label), 48 hours, listed as 5% MSM) was 3.0 × 10^3 cfu/ml and 2.7 × 10^3 cfu/ml and 3.3 × 10^3 cfu/ml and the “survival (cfu/ml)” value (60 μg/ml oxacillin + MSM (% in label), 48 hours, listed as 6% MSM) was 6.0 × 10^1 cfu/ml and 5.0 × 10^1 cfu/ml. The “survival (cfu/ml)” value (60 μg/ml oxacillin + MSM (% in label), 48 hours, listed as 7% MSM) was 1.0 × 10^4 cfu/ml and 1.1 × 10^4 cfu/ml, the “survival (cfu/ml)” value (60 μg/ml oxacillin + MSM (% in label), 48 hours, listed as 8% MSM) was 7.5 × 10^2 cfu/ml and 7.3 × 10^2 cfu/ml and 7.0 × 10^2 cfu/ml and the “survival (cfu/ml)” value (60 μg/ml oxacillin + MSM (% in label), 48 hours, listed as 9% MSM) was 1.8 × 10^2 cfu/ml and 1.7 × 10^2 cfu/ml and 1.5 × 10^2 cfu/ml. For the same molecule, the “survival (cfu/ml)” value (60 μg/ml oxacillin + MSM (% in label), 48 hours, listed as 10% MSM) was 1.6 × 10^2 cfu/ml and 1.4 × 10^2 cfu/ml, the “survival (cfu/ml)” value (60 μg/ml oxacillin + MSM (% in label), 48 hours, listed as 11% MSM) was 1.3 × 10^2 cfu/ml and 1.7 × 10^2 cfu/ml and 1.2 × 10^2 cfu/ml and the “survival (cfu/ml)” value (60 μg/ml oxacillin + MSM (% in label), 48 hours, listed as 12% MSM) was 1.1 × 10^2 cfu/ml and 1.0 × 10^2 cfu/ml. The “survival (cfu/ml)” value (60 μg/ml oxacillin + MSM (% in label), 48 hours, listed as 13% MSM) was 6.0 × 10^1 cfu/ml and 4.0 × 10^1 cfu/ml and 5.0 × 10^1 cfu/ml, the “survival (cfu/ml)” value (60 μg/ml oxacillin + MSM (% in label), 48 hours, listed as 14% MSM) was 1.5 × 10^2 cfu/ml and 1.7 × 10^2 cfu/ml and 1.2 × 10^2 cfu/ml and the “survival (cfu/ml)” value (60 μg/ml oxacillin + MSM (% in label), 48 hours, listed as 15% MSM) was 1.2 × 10^2 cfu/ml and 1.3 × 10^2 cfu/ml.
